# Measurements published in patent publication US20190336460A1, “C[…] ACID OR PHARMACEUTICALLY ACCEPTABLE SALT THEREOF AS ACTIVE INGREDIENT FOR PREVENTING OR TREATING OBESITY OR METABOLIC SYNDROMES CAUSED BY OBESITY” (KOREA FOOD RESEARCH INSTITUTE, priority 2016, published 2019).
# System: high-fat diet-induced obesity experimental animals (C57BL/6J mice)
# Assay: Organ weights (fat tissues, prostate, liver, spleen) in high-fat diet-induced obesity mice
# Assay type: in vivo, mouse
# Conditions: high-fat diet 13 weeks, oral once a day, 10 mmol, mean ± S.D.
# Method: In the present experiment, five-week-old C57BL/6J mice were purchased from Saeron Bio (Uiwang, Korea), and acclimated for 1 week before use in the experiment. The rearing room was controlled to have a temperature of 20±2° C., a humidity of 55±10%, and a light/darkness cycle of 12 hours during the experimental period. The experimental animals were divided into 6 groups according to the randomized block design, after 1-week of normal diet. The experimental groups were classified into Group A (normal diet group; n=10), Group B (high-fat diet control group; n=10), Group C (high-fat diet+sodium formate 10 mmol; n=9), Group D (high-fat diet+sodium butyrate 10 mmol; n=9), Group E (high-fat diet+sodium propionate 10 mmol; n=8), and Group F (high-fat diet+sodium acetate 10 mmol; n=4).
# Water and feed were freely accessible. Groups A and B were orally administered with physiological saline, and the other groups were orally administered with corresponding organic acids once a day (2 μg/g bodyweight). For the test groups, obesity was induced by a high-fat diet for 13 weeks, and a high-fat diet (D12492; 60% of the calories) purchased from Research Diet (USA) was used in the experiment.
# The body weights of the experimental animals were measured at a fixed time once a week during the experiment. The experimental animals were fasted for 12 hours before sacrifice, and blood was collected from eyes of the experimental animals anesthetized with ether. In order to prevent the coagulation of the blood after collection, the blood was placed in anti-coagulation tubes and left in an ice bath for 20 min. The collected blood samples were centrifuged at 3000 rpm for 10 min to separate serum therefrom, and refrigerated until use in the experiment. Thereafter, the kit through an enzymatic method was purchased from Young Dong Diagnostics (Yong-In, Korea) to measure the levels of blood lipids (triglyceride, cholesterol, HDL-Cholesterol, and LDL-Cholesterol). The organs were extracted, washed with physiological saline, dehydrated with a filter bed, and then weighed.
# The kidney fat, epididymal fat, subcutaneous fat, brown fat, prostate, liver, and spleen were extracted immediately after blood collection from the control and experimental groups, and washed with physiological saline, subjected to surface moisture removal, and then weighed.
SMILES,Liver weight,Prostate weight,Spleen weight
"CCC(=O)[O-].[Na+] [propionate, sodium propionate]",0.84 ± 0.05^B g,0.21 ± 0.06^A g,0.06 ± 0.01^A g
"O=C[O-].[Na+] [formate, sodium formate]",0.90 ± 0.10^AB g,0.20 ± 0.05^A g,0.07 ± 0.01^A g
"CC(=O)[O-].[Na+] [acetate, sodium acetate]",1.09 ± 0.48^A g,0.22 ± 0.07^A g,0.07 ± 0.01^A g
"CCCC(=O)[O-].[Na+] [butyrate, sodium butyrate]",0.81 ± 0.26^B g,0.24 ± 0.06^A g,0.07 ± 0.01^A g
